Source: US5387671A (Abbott Laboratories, priority 1990, dated 1995)
For some assays here: HELM strings list residues between dots; [ac] is acetyl, [am] amide, other brackets name non-standard units.

Columns and labels:
[1] = general procedure: Boc solid-phase peptide synthesis; Boc-DArg(N-guanidino-Tos)-Merrifield resin; conditions: whole synthesis, scale 0.56 g peptide resin
[2] = Boc solid-phase peptide synthesis; Merrifield resin; conditions: whole synthesis, scale 0.6 g peptide resin

| Substance | crude mass [1] | crude mass [2] |
| --- | --- | --- |
| N-Acetyl-Phenylalanyl-Lysyl-(N-Methyl)Alanyl-{(2R)-2 -Amino-3-cyclohexylpropanoyl}-{(2S)-2-Amino-3-cyclohexylpropanoyl}-DArginyl-OH | 130 mg |  |
| PEPTIDE1{[NMePhe].K.P.[D-Cha].[PhePsiCH2NH-D-Arg]}$$$$V2.0 |  | 148 mg |
